The structures appear in SMILES notation.

The results in this text go back to US5410052A, “Symmetrical and unsymmetrical polyalkylamine metal complexes for ligand extraction and generation” (The Regents of the University of California, priority 1990, dated 1995).

The nature of series [1]: Coulometry of cobalt PAA carrier compounds (oxygen release). Particulars: cobalt complex; for % O2 max: at the minimum voltage Vmin. From the text: Coulometry techniques allow the determination of the relative energetics and rates of oxygen release. For such experiments, solutions similarly to those outlined above for cyclic voltammetry are placed in a three-electrode electrolysis cell equipped with a Clark-type oxygen probe. […] Each oxidizing potential is held constant with respect to a silver-silver chloride reference electrode. The resulting current is integrated over time to yield the amount of carrier compounded oxidized. By employing the same electrode geometry, solution volume, stirring rate, information about the relative rate and amount of oxygen release (the "O2 rate") can be determined, at a particular applied cell voltage. Eapp from the response of the oxygen probe.
The expected amount of oxygen evolved is given one-half the total integrated charge through the cell divided by F=96,484 C/mole, since theoretically, two electrons are required to oxidize the two cobalt ions and release one oxygen molecule. The ratio of this figure to the actual amount of oxygen produced is "% O2 max", at the minimum voltage, Vmin, required to produce oxygen. In additional, the "voltage window" the difference between the anodic oxygen evolution and cathodic reduction potentials is measured.
A typical cyclic voltammetry trace, for the oxygenated Co(II) complex of PAA No. 72 using a glassy carbon electrode, is shown in FIG. 6. Coulometry data for several cobalt carrier compounds is summarized in Table V. The couliometric data reported on the average of three to five experiments. The standard deviations for O2 rate were +/=0.36 microliters per minute.

The nature of series [2]: Electrochemical oxygen cell (EOC) results for cobalt carrier compounds. Particulars: cobalt complex. From the text: One apparatus for bench-scale or laboratory-scale evaluation of particular carrier compounds for use in practicing the methods according to the invention is illustrated schematically in FIG. 8. The electrochemical oxygen cell (EOC), designated 20, includes generally an oxygen loader 22, an electrochemical cell 24 having an anode compartment 26 and a cathode compartment 28 separated by an ion-permeable membrane 30, and an unloader 32. Carrier fluid is circulated through loader 22, anode compartment 26, unloader 32, cathode compartment 28 and back to loader 22 using the pump 34 with appropriate plastic or glass conduit.
The carrier fluids suitable for use in, for example, electrochemical oxygen cell 20 comprise a carrier compound in a concentration between about 1 mM and 500 mM, usually between about 10 mM and 300 mM, usually between about 50 mM and about 200 mM. Carrier fluids comprising carrier compounds according to the present invention are preferably aqueous and include additional an electrolyte, e.g., sodium chloride, potassium chloride, sodium nitrate, potassium sulfate, at a concentration of between about 0.1M (moles/liter) and about 1.0M usually about 0.5M. The carrier fluids may be titrated or buffered to the desired pH. Buffer salts such as sodium borate, potassium phosphate, sodium phosphate, etc., may be used depending upon the pH desired, the availability of particular salts, and compatibility of particular buffer salts with particular carrier compounds. The buffer salts(s) are generally present in concentrations of between 10 mM and about 0.5M, usually between 50 mM and 100 mM.
Loader 22 is, for example a microporous hydrophobic hollow fiber membrane array such as that which will be described more fully below in connection with FIG. 9. Suitable membrane arrays are manufactured by Bard Cardiosurgery. Inc. of Concord, Calif. These membrane arrays are typically modified to allow fluid flow both inside and outside the hollow fibers in a manner that will be apparent to those skilled in the art.
Cell 24 includes a pair of titanium current collector plates 36, 38, which press against two electrodes 40, 42. Typically, electrodes 40, 42 are carbon felt electrodes, in one example of the cell 24 having dimensions of about 25 cm×10 cm.×0.5 cm. Electrodes 40, 42, and thus anode compartment 26 is cathode compartment 28, are separated by membrane 30 which is an ion-permeable membrane made, for example, of Nafion (sold by DuPont). Cell 24 is assembled in a plexiglass housing (not separately shown) having two halves which are bolted together and sealed with an O-ring or gasket seal (not shown). Cell 24 includes the necessary ports for introducing and removing carrier fluids from anode compartment 26 cathode compartment 28. Cell 24 further includes ports for insertion of reference electrodes 44, 46 which are conveniently, but not necessarily silver-silver chloride reference electrodes. Current collector plates 36, 38 are connected via titanium posts 48, 50 to a potentiostat (not shown) capable of supplying either a constant or a variable current or voltable to cell 24. Suitable potentiostats are available for example, from Princeton Applied Research, Princeton, N.J. Unloader 32, in the embodiment shown in FIG. 8 includes a cylindrical fluid gas separation chamber 52, equipped with a nitrogen sweep gas bubbler 54 near the bottom thereof and an exit port at the top thereof. Alternatively, unloader 32 may be a hollow fiber device such as that described above in connection with loader 22.
In operation, carrier fluid is circulated through loader 22 where it is exposed, through the ligand-permeable membrane, to the fluid from which oxygen is to be extracted. In the typical laboratory-scale electrochemical oxygen cell 20, carrier fluid of oxygenated using air as the external fluid. […]

A short description of series [3]: Demonstration unit results for cobalt carrier compounds. Particulars: cobalt complex. From the text:
These components together form a sealed system containing a fixed volume of ligand carrier and carrier fluid. The apparatus shown in FIG. 9 is generally of a type generally intended for relatively larger scale production of oxygen. The electrochemical cell comprises twenty parallel TEFLON® (polytetrafluoroethylene, a trademark of the DuPont Company, Wilmington, Del.) plates having sputtered gold surfaces, between which the carrier fluid id directed, in parallel. The plates are 3 mm thick and spaced at a distance of 1 mm. An individual place is 62.5 cm long and 8 cm wide. When stacked in a parallel plate arrangement, the twenty layers have a total height of 8 cm. The use of a bipolar cell such as this enables the use of higher voltages at proportionately small currents than would be required to operate a single anode, single cathode cell of the same surface area. The electrochemical cell is connected to a voltage supply capable of providing 20 amps at 0.1 volt. The unloading station comprises one or more (one is shown) hollow fiber cartridges 1 inch in diameter and 43 inches in length containing hollow fibers which consist of porous polysulfone with an interior silicon rubber skin. The surface area of the hollow fibers is 0.25 m^2. When more than one such cartridge is used, they are arranged for parallel flow to a commensurate fraction of the total carrier fluid flow through the apparatus. Polyvinylchloride or polypropylene piping is used to connect various inlet and outlet ports. The outlet port of the first electrode compartment is connected to the inlet port of the small of the two hollow fiber cartridges so that the fluid which exists from the first electrode compartment enters the interior or the hollow fibers. This outlet port of the hollow fiber cartridge is connected to the inlet port of the second electrode compartment. The inlet port of the first electrode compartment is connected to the outlet port of the ligand extracting station while the outlet port of the second electrode compartment is connected through a pump to the inlet port of the ligand extracting station. In the embodiment shown, the ligand extracting station comprises one or more (one is shown) hollow fiber cartridges 3 inches in diameter and 43 inches in length, arranged for simultaneous parallel flow through the cartridges when more than one is used. Each cartridge contains 660 hollow fibers made of porous polysulfone with an interior silicon rubber skin. The hollow fibers have a membrane surface area of 2.5 m^2 and an interior volume of 646 ml. The space surrounding the hollow fibers is in communication with the electrochemical cell, not the interior of the hollow filbers. A fluid containing the ligand which is being extracted passes through the interior of the hollow fibers.
Approximately 1 liter of the carrier fluid is present in the interior volume of the apparatus as described above and the ligand extracting station together. Carrier fluid containing the ligand carrier having a ligand bound thereto passes from the exit port of the ligand extracting station into the inlet port of the first electrode compartment where a redox reaction takes place in order to release the ligand carrier having a ligand bound thereto passes from the exist port of the ligand extracting station into the inlet port of the first electrode compartment where a redox reaction takes place in order to release the ligand from the ligand carrier. Free ligand, carrier fluid, and nonbinding-state ligand carrier pass from the exist port of the first electrode chamber into the ligand unloading station where ligand passes through the walls of the ligand-permeable membrane and is collected. In the particular illustration shown, oxygen passes directly in the space where it is being utilized. It is also possible to pass fluids or chemical reactants over the outside of the hollow fibers. […]

Where [4] appears, read: 10 mM PAA, 30 mL/min, pH 6, 1.6 V.
Where [5] appears, read: 110 mM PAA, 50 mL/min, pH 6, 1.6 V.
Setting [6] is: 52.5 mM PAA, 1200 mL/min, pH 10.15, 16 V (ten cell stock).
Setting [7] is: 110 mM PAA, 4000 mL/min, pH 8.3, 16 V (ten cell stock).
The mark [8] stands for this setting: 200 mM PAA, 45 mL/min, pH 7, 0.6 V.
The mark [9] stands for this setting: 50 mM PAA, 60 mL/min, pH 7, 0.6 V.
[10] abbreviates: 100 mM PAA, 50 mL/min, pH 7, 0.6 V.
[11] abbreviates: 10 mM PAA, 30 mL/min, pH 6.7, 0.9 V.
Where [12] appears, read: 10 mM PAA, 30 mL/min, pH 6.7, 1.6 V.
Where [13] appears, read: 100 mM PAA, 120 mL/min, pH 7, 0.6 V.

With `c1nc(CNCCCNCCCNCc2c[nH]cn2)c[nH]1` [compound 74], the “O2 Rate” value in series [1] (EApp 0.70 V) was 1.5 ± 0.3 µL/min.

With `NCCNCCNCCNCCN` [compound 33], the “O2 Rate” value in series [1] (EApp 0.55 V) stood at 3.5 ± 0.1 µL/min. In series [1], the “% O2 max” value is 50%. Also, the “EC O2 (electrochemical oxygen production rate)” value (shortened to “EC O2”) in series [2] (setting [4]) came out at 0.284 mL/min; in series [2] (setting [5]), 2.0 mL/min; in series [3] (setting [6]), 58.7 mL/min; in series [3] (setting [7]), 87.5 mL/min. Besides, the Power consumed came to 839 W/L/min in series [2] (setting [4]), 259 W/L/min in series [2] (setting [5]), 250 W/L/min in series [3] (setting [6]) and 808 W/L/min in series [3] (setting [7]). Besides, the “e-/O2 (electrons passed per molecule of O2 produced)” value is listed as 7.3 in series [2] (setting [4]) and 2.3 in series [2] (setting [5]).

On to `c1ccc(CNCCCCNCCCNCc2ccccn2)nc1` [compound 78], for which the “O2 Rate” value in series [1] (EApp 0.50 V) turned out to be 0.8 ± 0.2 µL/min. The “% O2 max” value in series [1] is 16%.

With `c1c[nH]c(CNCCCCNCCNCc2ncc[nH]2)n1` [compound 190], the “O2 Rate” value in series [1] (EApp 0.70 V) was 1.4 ± 1.2 µL/min.

In the case of `Cn1ccnc1CNCCCNCCCNCc1nccn1C` [compound 189], the “O2 Rate” value in series [1] (EApp 0.70 V) stood at 0.7 ± 0.4 µL/min. Moreover, in series [2] (setting [8]), the “EC O2” value came to 1.80 mL/min, the Power consumed was 142 W/L/min and the “e-/O2 (electrons passed per molecule of O2 produced)” value amounted to 4.3.

Take `Cc1[nH]cnc1CNCCCCNCCNCc1nc[nH]c1C` [compound 191]: the “O2 Rate” value in series [1] (EApp 0.60 V) turned out to be 5.8 ± 0.8 µL/min. In addition, in series [1], the “% O2 max” value stood at 49%.

In the case of `c1nc(CNCCNCCNCc2c[nH]cn2)c[nH]1` [compound 75], the “O2 Rate” value in series [1] (EApp 0.70 V) is 1.5 ± 0.4 µL/min. In addition, the “% O2 max” value in series [1] is given as 28%.

With `c1ccc(Cn2ccnc2CNCCCNCCCNCc2nccn2Cc2ccccc2)cc1` [compound 118], in series [1] (EApp 0.80 V), the “O2 Rate” value was determined as 1.6 ± 0.2 µL/min. For the same compound, the “% O2 max” value in series [1] amounted to 20%.

For `Cn1ccnc1CNCCCCNCCNCc1nccn1C` [compound 192], in series [1] (EApp 0.70 V), the “O2 Rate” value is 7.7 ± 1.1 µL/min. Also, in series [2] (setting [9]), the “EC O2” value was found to be 1.90 mL/min, the Power consumed was 71 W/L/min and the “e-/O2 (electrons passed per molecule of O2 produced)” value is on record as 2.1. In addition, in series [2] (setting [10]), the “EC O2” value stood at 1.20 mL/min, the Power consumed is 66 W/L/min and the “e-/O2 (electrons passed per molecule of O2 produced)” value was found to be 2.0.

For `c1ccc(CNCCCNCCNCc2ccccn2)nc1` [compound 72], the “O2 Rate” value in series [1] (EApp 0.75 V) worked out at 2.3 ± 0.5 µL/min. Also, in series [2] (setting [11]), the “EC O2” value was 0.091 mL/min, the Power consumed was determined as 400 W/L/min and the “e-/O2 (electrons passed per molecule of O2 produced)” value was found to be 6.23. Also, in series [2] (setting [12]), the “EC O2” value turned out to be 0.548 mL/min, the Power consumed came to 556 W/L/min and the “e-/O2 (electrons passed per molecule of O2 produced)” value amounted to 4.8.

With `c1c[nH]c(CNCCCNCCCNCc2ncc[nH]2)n1` [compound 73], the “O2 Rate” value in series [1] (EApp 0.70 V) is 0.7 ± 0.2 µL/min. Also, in series [1], the “% O2 max” value came out at 31%.

Regarding `c1ccc(Cn2ccnc2CNCCCNCCNCc2nccn2Cc2ccccc2)cc1` [compound 121], the “O2 Rate” value in series [1] (EApp 0.75 V) is 1.4 ± 0.2 µL/min. Also, in series [1], the “% O2 max” value is on record as 28%.

Take `c1nc(CNCCCCNCCNCc2c[nH]cn2)c[nH]1` [compound 180]: the “O2 Rate” value in series [1] (EApp 0.60 V) came out at 4.1 ± 0.5 µL/min. Moreover, the “% O2 max” value in series [1] is recorded as 52%.

For `c1nc(CNCCCNCCNCc2c[nH]cn2)c[nH]1` [compound 119], the “O2 Rate” value in series [1] (EApp 0.65 V) worked out at 1.4 ± 0.3 µL/min.

For `Cn1ccnc1CNCCCNCCNCc1nccn1C` [compound 133], in series [2] (setting [13]), the “EC O2” value amounted to 0.60 mL/min, the Power consumed came to 102 W/L/min and the “e-/O2 (electrons passed per molecule of O2 produced)” value was determined as 3.0.
